PubChem BioAssay AID1224830 | NIAID – 2016

Purpose: 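Regulators of TLR4 signalling towards TNF-alpha in macrophage-like cells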 (primary screen)
Cell system: human THP-1 monocytic leukaemia cells, TNF dual-luciferase reporter clone, PMA-differentiated to macrophage-like cells
Reagent: siRNA pool against human genes, 50 nM
Timing: LPS for 4 h, given about 3 days after siRNA transfection
Conditions: bacterial LPS (TLR4 ligand), 10 ng/ml
Read-out: 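TNF firefly reporter luminescence divided by renilla, normalised to the plate median, then turned into a robust z-score for each replicate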
Scale: TNF reporter robust z-score: higher = stronger TNF reporter response to LPS
Call rule: 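a well is active when its z-score exceeds 2.8 or falls below -1.5; control wells carry no call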
The deposit covers about 18,000 reagents; shown is a part drawn at random. About 2,900 of all reagents (16%) were called active. 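Calls are made per well; low scores hint the gene aids the LPS response, high scores that it dampens it.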 Entries without a mark were called inactive. Repeated entries: four replicate wells of each siRNA pool.

no.	gene	TNF reporter robust z-score
1	GTF2E1	-0.14
2	GTF2E1	-0.85
3	GTF2E1	-0.46
4	GTF2E1	0.01
5	SOCS4	-0.81
6	SOCS4	-2.1 (active)
7	SOCS4	0.45
8	SOCS4	1.12
9	SLC22A8	0.13
10	SLC22A8	0.59
11	SLC22A8	1.49
12	SLC22A8	0.77
13	PGAM2	-0.89
14	PGAM2	-0.67
15	PGAM2	-0.83
16	PGAM2	-0.49
17	TRAPPC3	-1.51 (active)
18	TRAPPC3	-1.35
19	TRAPPC3	-1.44
20	TRAPPC3	-1.49
21	RGL1	0.84
22	RGL1	3.31 (active)
23	RGL1	2.11
24	RGL1	2.47
25	SRD5A2	-1.96 (active)
26	SRD5A2	-2.12 (active)
27	SRD5A2	-2.19 (active)
28	SRD5A2	-1.68 (active)
29	CCNC	0.41
30	CCNC	0.86
31	CCNC	-0.11
32	CCNC	1.24

In a second layout: entries from further up.
gene | TNF reporter robust z-score
TRAPPC3 | -1.49
RGL1 | 0.84
RGL1 | 3.31 (active)
RGL1 | 2.11
RGL1 | 2.47
SRD5A2 | -1.96 (active)
SRD5A2 | -2.12 (active)
SRD5A2 | -2.19 (active)
SRD5A2 | -1.68 (active)
CCNC | 0.41

More records follow.
no.	gene	TNF reporter robust z-score
33	SDC1	0.58
34	SDC1	1.74
35	SDC1	2.37
36	SDC1	2.03
37	H4C2	-0.09
38	H4C2	0.01
39	H4C2	0.08
40	H4C2	0.5
41	ADPRH	-1.1
42	ADPRH	-1.24
43	ADPRH	-1.19
44	ADPRH	-0.72
45	LAPTM4A	0.14
46	LAPTM4A	0.43
47	LAPTM4A	-1.07
48	LAPTM4A	-0.66
49	MAMSTR	0.34
50	MAMSTR	0.19
51	MAMSTR	-0.29
52	MAMSTR	-0.17
53	TRPV3	-0.38
54	TRPV3	0.63
55	TRPV3	0.54
56	TRPV3	0.49
57	TBX4	0.57
58	TBX4	1.08
59	TBX4	1.06
60	TBX4	1.43
61	KRT7	1.83
62	KRT7	1.67
63	KRT7	1.86
64	KRT7	1.38
65	POU1F1	1.44
66	POU1F1	0.46
67	POU1F1	0.56
68	POU1F1	-0.03
69	SFSWAP	-0.19
70	SFSWAP	0.64
71	SFSWAP	-0.31
72	SFSWAP	0.31
73	PNPLA7	-1.69 (active)
74	PNPLA7	-1.97 (active)
75	PNPLA7	-1.79 (active)
76	PNPLA7	-1.82 (active)
